Measured data: PubChem BioAssay AID1159598 (NIAID, 2016)
Shown is a random part of 756 reagents tested. 142 of them (19%) count as active. 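Active includes both higher and lower reporter signal; each gene has six separate siRNAs, and no gene-level summary is deposited.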 The numbers tell different reagents against one gene apart. No sequences are given here. Not given: the amount of reagent.

Aim: 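Canonical TLR pathway genes needed for TNF promoter response to flagellin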
System: human THP-1 B5 reporter cells made macrophage-like with PMA
Reagents: single siRNA against human genes
Timing: reporter read 48 to 72 hours after siRNA transfection
Treatment: flagellin stimulation for 4 hours, dose not given
Read-out: 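Firefly to renilla ratio from a TNF promoter reporter after 4 h flagellin, as robust z against negative controls averaged across replicates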
Reading the numbers: TNF reporter z-score: higher = stronger TNF promoter activity than controls
Rule for the call: 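a row is called active when its replicate-mean z lies at or beyond 1.5 in either direction, so raised and lowered signal both count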
Calls: active = reporter shifted beyond 1.5 z, up or down; inactive = reporter within 1.5 z of controls

IFNB1 #1 → TNF reporter z-score = -0.859; outcome = inactive
IFNB1 #2 → TNF reporter z-score = -1.31; outcome = inactive
IFNB1 #3 → TNF reporter z-score = 0.205; outcome = inactive
IFNB1 #4 → TNF reporter z-score = -0.876; outcome = inactive
IFNB1 #5 → TNF reporter z-score = -1.94; outcome = active
IFNB1 #6 → TNF reporter z-score = -1.83; outcome = active
IFNAR2 #1 → TNF reporter z-score = -0.317; outcome = inactive
IFNAR2 #2 → TNF reporter z-score = -1.41; outcome = inactive
IFNAR2 #3 → TNF reporter z-score = -1.81; outcome = active
IFNAR2 #4 → TNF reporter z-score = -0.0904; outcome = inactive
IFNAR2 #5 → TNF reporter z-score = -0.507; outcome = inactive
IFNAR2 #6 → TNF reporter z-score = -0.773; outcome = inactive
RIPK1 #1 → TNF reporter z-score = -0.33; outcome = inactive
RIPK1 #2 → TNF reporter z-score = 0.276; outcome = inactive
RIPK1 #3 → TNF reporter z-score = 0.123; outcome = inactive
RIPK1 #4 → TNF reporter z-score = -1.5; outcome = inactive
RIPK1 #5 → TNF reporter z-score = -0.494; outcome = inactive
RIPK1 #6 → TNF reporter z-score = -0.135; outcome = inactive
MAP2K2 #1 → TNF reporter z-score = -0.235; outcome = inactive
MAP2K2 #2 → TNF reporter z-score = -0.268; outcome = inactive
MAP2K2 #3 → TNF reporter z-score = -0.861; outcome = inactive
MAP2K2 #4 → TNF reporter z-score = 0.818; outcome = inactive
MAP2K2 #5 → TNF reporter z-score = 0.164; outcome = inactive
MAP2K2 #6 → TNF reporter z-score = 0.446; outcome = inactive
IFNAR1 #1 → TNF reporter z-score = -1.91; outcome = active
IFNAR1 #2 → TNF reporter z-score = -1.45; outcome = inactive
IFNAR1 #3 → TNF reporter z-score = -0.442; outcome = inactive
IFNAR1 #4 → TNF reporter z-score = -1.35; outcome = inactive
IFNAR1 #5 → TNF reporter z-score = -0.988; outcome = inactive
IFNAR1 #6 → TNF reporter z-score = 0.0464; outcome = inactive

8 entries from above, set out differently.
| gene symbol | reagent | TNF reporter z-score | outcome |
| --- | --- | --- | --- |
| MAP2K2 | 1 | -0.235 | inactive |
| MAP2K2 | 2 | -0.268 | inactive |
| MAP2K2 | 3 | -0.861 | inactive |
| MAP2K2 | 4 | 0.818 | inactive |
| MAP2K2 | 5 | 0.164 | inactive |
| MAP2K2 | 6 | 0.446 | inactive |
| IFNAR1 | 1 | -1.91 | active |
| IFNAR1 | 2 | -1.45 | inactive |

Additional records follow:
TNF #1 → TNF reporter z-score = -0.85; outcome = inactive
TNF #2 → TNF reporter z-score = -0.876; outcome = inactive
TNF #3 → TNF reporter z-score = -3.62; outcome = active
TNF #4 → TNF reporter z-score = -0.0953; outcome = inactive
TNF #5 → TNF reporter z-score = -1.53; outcome = active
TNF #6 → TNF reporter z-score = -2.71; outcome = active
IRAK2 #1 → TNF reporter z-score = 0.589; outcome = inactive
IRAK2 #2 → TNF reporter z-score = -1.37; outcome = inactive
IRAK2 #3 → TNF reporter z-score = 0.119; outcome = inactive
IRAK2 #4 → TNF reporter z-score = 0.135; outcome = inactive
IRAK2 #5 → TNF reporter z-score = -1.91; outcome = active
IRAK2 #6 → TNF reporter z-score = 1.07; outcome = inactive
NFKB2 #1 → TNF reporter z-score = -1.39; outcome = inactive
NFKB2 #2 → TNF reporter z-score = -0.624; outcome = inactive
NFKB2 #3 → TNF reporter z-score = 1.5; outcome = active
NFKB2 #4 → TNF reporter z-score = -0.253; outcome = inactive
NFKB2 #5 → TNF reporter z-score = -2.16; outcome = active
NFKB2 #6 → TNF reporter z-score = -0.78; outcome = inactive
